Test results: publication PMC5008356
No constants are given. Whether binding was seen depends on the method and setting. In cells and extracts the contact can be indirect. Some results given as binding are weak or reduced against the parent protein; the word gives no strength.

Sequences of proteins named here, by UniProt entry; tags and fusion partners are left off. Residues count along the entry.
UniProt Q04206: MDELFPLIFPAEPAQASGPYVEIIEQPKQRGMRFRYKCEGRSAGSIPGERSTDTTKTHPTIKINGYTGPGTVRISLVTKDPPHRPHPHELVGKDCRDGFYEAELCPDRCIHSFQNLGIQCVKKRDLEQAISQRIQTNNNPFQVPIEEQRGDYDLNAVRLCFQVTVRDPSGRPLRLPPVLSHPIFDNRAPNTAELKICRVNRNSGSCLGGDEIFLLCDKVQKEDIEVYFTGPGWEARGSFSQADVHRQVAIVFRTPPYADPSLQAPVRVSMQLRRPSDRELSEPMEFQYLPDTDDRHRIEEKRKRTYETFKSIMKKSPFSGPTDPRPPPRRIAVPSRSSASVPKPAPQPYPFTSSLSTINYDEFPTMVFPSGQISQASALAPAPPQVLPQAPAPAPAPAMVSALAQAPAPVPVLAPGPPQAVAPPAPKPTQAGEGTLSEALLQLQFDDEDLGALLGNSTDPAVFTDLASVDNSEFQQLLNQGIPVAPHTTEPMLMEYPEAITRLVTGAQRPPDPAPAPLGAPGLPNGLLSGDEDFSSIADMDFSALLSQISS
UniProt P63165, residues 1-97: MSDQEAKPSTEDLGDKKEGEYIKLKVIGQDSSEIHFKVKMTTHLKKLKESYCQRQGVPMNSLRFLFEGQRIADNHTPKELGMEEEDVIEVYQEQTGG

Tests used:
[1] = target: p65 (human (endogenous in HCC tumor tissue)) (UniProt Q04206); test: co-IP; lysates of tumor tissues of HCC patients; anti-p65 antibody on Protein A agarose, 4 °C; lysis buffer 50 mM HEPES, 150 mM NaCl, 2 mM EGTA, 0.1% Triton X-100, pH 7.4, 20 mM NEM; blot with anti-SUMO1; isotype IgG as negative control
[2] = target: p65 (human (endogenous in SMMC7721)) (UniProt Q04206); test: co-IP; whole cell lysates of SMMC7721 cells 24 hours after transfection with GFP-SUMO1 and myc-UBC9; untreated, or treated with 10 ng/ml TNF-α for 30 min or OGD for 150 min; anti-p65 antibody on Protein A agarose, 4 °C; lysis buffer 50 mM HEPES, 150 mM NaCl, 2 mM EGTA, 0.1% Triton X-100, pH 7.4, 20 mM NEM; blot with anti-SUMO1; isotype IgG as negative control

Row | binding [1] | binding [2] | Substance
1 | binds | – | Small ubiquitin-related modifier 1 (from UniProt P63165 1-97)
2 | – | binds | GFP-SUMO1 (from UniProt P63165 1-97)
